The values that follow come from paper PMC9375095.

The chains behind the UniProt entries cited, without tags or fusion partners.
UniProt Q13547: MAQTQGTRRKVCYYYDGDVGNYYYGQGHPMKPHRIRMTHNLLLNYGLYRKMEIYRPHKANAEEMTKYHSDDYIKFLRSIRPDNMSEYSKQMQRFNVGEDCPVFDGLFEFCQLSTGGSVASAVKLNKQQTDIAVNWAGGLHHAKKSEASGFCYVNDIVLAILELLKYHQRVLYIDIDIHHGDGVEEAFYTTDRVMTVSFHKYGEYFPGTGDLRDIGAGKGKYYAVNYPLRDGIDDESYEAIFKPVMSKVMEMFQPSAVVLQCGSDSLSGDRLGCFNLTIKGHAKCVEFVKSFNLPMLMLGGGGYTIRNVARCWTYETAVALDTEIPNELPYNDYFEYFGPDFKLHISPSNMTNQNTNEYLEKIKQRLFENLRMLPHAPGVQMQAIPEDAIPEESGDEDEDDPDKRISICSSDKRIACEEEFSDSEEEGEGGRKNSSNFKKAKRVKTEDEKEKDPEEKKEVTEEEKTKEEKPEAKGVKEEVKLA
UniProt P35637: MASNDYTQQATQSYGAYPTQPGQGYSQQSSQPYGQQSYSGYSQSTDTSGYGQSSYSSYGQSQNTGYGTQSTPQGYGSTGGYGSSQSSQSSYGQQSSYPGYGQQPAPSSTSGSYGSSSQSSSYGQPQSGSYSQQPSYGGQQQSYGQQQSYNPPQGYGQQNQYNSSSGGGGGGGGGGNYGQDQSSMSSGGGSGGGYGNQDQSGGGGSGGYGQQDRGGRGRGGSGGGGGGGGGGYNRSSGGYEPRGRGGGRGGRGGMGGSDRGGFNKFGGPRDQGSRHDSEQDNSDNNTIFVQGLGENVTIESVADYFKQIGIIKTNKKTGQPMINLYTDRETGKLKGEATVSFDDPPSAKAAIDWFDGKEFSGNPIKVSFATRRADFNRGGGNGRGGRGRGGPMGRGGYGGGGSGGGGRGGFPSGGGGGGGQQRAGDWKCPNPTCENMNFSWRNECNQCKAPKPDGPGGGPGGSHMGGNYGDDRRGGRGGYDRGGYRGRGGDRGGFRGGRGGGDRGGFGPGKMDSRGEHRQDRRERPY

These are yes or no findings as the source states them, for the method shown. Binding seen in cells or lysates may run through a third protein. Some entries that bind do so weakly or less than the wild type.

The target in assay [1] is T1, HNRNPM (human (endogenous in MCF7)) (UniProt P52272).
T1 sequence: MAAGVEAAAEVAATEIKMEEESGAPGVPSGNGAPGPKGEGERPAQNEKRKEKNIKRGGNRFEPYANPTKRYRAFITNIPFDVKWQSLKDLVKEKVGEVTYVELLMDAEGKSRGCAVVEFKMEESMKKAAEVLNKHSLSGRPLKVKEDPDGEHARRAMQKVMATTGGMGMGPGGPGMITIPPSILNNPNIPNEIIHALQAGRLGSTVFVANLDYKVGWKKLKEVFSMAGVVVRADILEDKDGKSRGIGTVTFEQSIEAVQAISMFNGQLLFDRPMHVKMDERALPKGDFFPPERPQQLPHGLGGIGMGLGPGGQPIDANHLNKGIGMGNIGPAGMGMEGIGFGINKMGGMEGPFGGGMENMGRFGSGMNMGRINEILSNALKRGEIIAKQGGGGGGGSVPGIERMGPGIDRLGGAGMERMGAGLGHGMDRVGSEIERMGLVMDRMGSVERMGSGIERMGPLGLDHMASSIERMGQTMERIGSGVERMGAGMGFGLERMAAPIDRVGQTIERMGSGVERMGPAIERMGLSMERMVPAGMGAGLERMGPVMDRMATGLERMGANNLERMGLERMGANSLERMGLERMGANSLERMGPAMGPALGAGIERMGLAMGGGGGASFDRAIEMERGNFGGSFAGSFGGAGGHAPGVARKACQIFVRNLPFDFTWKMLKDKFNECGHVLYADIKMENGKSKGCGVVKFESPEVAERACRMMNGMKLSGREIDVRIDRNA
Description: proximity ligation; in situ PLA (Duolink In Situ Red Starter Kit Mouse/Rabbit) on PFA-fixed, permeabilised cells; RCPs per cell; treatments: TGF-β1 48 h (HaCaT), siPDIA3 72 h (HaCaT), PDGF-BB 15 min (BJ-hTERT).

The target in assay [2] is T1, HNRNPM (human (endogenous in MCF7)). Put plainly: MolBoolean (proximity assay with antibody-DNA conjugates); PFA-fixed, permeabilised cells (MCF7, HaCaT, AGS clones, BJ-hTERT); mouse and rabbit primary antibodies, secondary proximity probes A and B; dual-coloured RCPs counted as complex, single-coloured as free protein; treatments: TGF-β1 48 h (HaCaT), siPDIA3 72 h (HaCaT), PDGF-BB 15 min (BJ-hTERT).

For assay [3], the target named is calreticulin (human (endogenous in HaCaT)) (UniProt P27797). Description: proximity ligation; in situ PLA (Duolink In Situ Red Starter Kit Mouse/Rabbit) on PFA-fixed, permeabilised cells; RCPs per cell; treatments: TGF-β1 48 h (HaCaT), siPDIA3 72 h (HaCaT), PDGF-BB 15 min (BJ-hTERT).
Assay [4] shares this target. Description: MolBoolean (proximity assay with antibody-DNA conjugates); PFA-fixed, permeabilised cells (MCF7, HaCaT, AGS clones, BJ-hTERT); mouse and rabbit primary antibodies, secondary proximity probes A and B; dual-coloured RCPs counted as complex, single-coloured as free protein; treatments: TGF-β1 48 h (HaCaT), siPDIA3 72 h (HaCaT), PDGF-BB 15 min (BJ-hTERT).
For assay [5], the target named is HDAC1 (human (endogenous in FFPE colon tissue)) (UniProt Q13547). Description: proximity ligation; in situ PLA (Duolink) on deparaffinised FFPE human tissue sections after antigen retrieval.
Assay [6] has the same target. Description: MolBoolean (proximity assay with antibody-DNA conjugates); FFPE human tissue sections after deparaffinisation and antigen retrieval; secondary proximity probes; percentage of RCPs in each category per frame.

As for FUS (from UniProt P35637 1-526), the binding result in assay [1] and in assay [2] was “binds” in each case.

On to PDIA3 (from UniProt P30101 25-505), for which the binding entry in assay [3] and in assay [4] was “binds” in each case.

B1: SATB2 (protein, UniProt Q9UPW6 1-733)
chain: MERRSESPCLRDSPDRRSGSPDVKGPPPVKVARLEQNGSPMGARGRPNGAVAKAVGGLMIPVFCVVEQLDGSLEYDNREEHAEFVLVRKDVLFSQLVETALLALGYSHSSAAQAQGIIKLGRWNPLPLSYVTDAPDATVADMLQDVYHVVTLKIQLQSCSKLEDLPAEQWNHATVRNALKELLKEMNQSTLAKECPLSQSMISSIVNSTYYANVSATKCQEFGRWYKKYKKIKVERVERENLSDYCVLGQRPMHLPNMNQLASLGKTNEQSPHSQIHHSTPIRNQVPALQPIMSPGLLSPQLSPQLVRQQIAMAHLINQQIAVSRLLAHQHPQAINQQFLNHPPIPRAVKPEPTNSSVEVSPDIYQQVRDELKRASVSQAVFARVAFNRTQGLLSEILRKEEDPRTASQSLLVNLRAMQNFLNLPEVERDRIYQDERERSMNPNVSMVSSASSSPSSSRTPQAKTSTPTTDLPIKVDGANINITAAIYDEIQQEMKRAKVSQALFAKVAANKSQGWLCELLRWKENPSPENRTLWENLCTIRRFLNLPQHERDVIYEEESRHHHSERMQHVVQLPPEPVQVLHRQQSQPAKESSPPREEAPPPPPPTEDSCAKKPRSRTKISLEALGILQSFIHDVGLYPDQEAIHTLSAQLDLPKHTIIKFFQNQRYHVKHHGKLKEHLGSAVDVAEYKDEELLTESEENDSEEGSEEMYKVEAEEENADKSKAAPAEIDQR
Take B1: the binding result in assay [5] and in assay [6] was “binds” in each case.
